{"sequences": {"note": "By UniProt entry, the sequences of proteins in these tests, tags left out. Where a name states a change or a piece, a line headed by the entry shows the natural chain unless it says otherwise.", "UniProt P51450": "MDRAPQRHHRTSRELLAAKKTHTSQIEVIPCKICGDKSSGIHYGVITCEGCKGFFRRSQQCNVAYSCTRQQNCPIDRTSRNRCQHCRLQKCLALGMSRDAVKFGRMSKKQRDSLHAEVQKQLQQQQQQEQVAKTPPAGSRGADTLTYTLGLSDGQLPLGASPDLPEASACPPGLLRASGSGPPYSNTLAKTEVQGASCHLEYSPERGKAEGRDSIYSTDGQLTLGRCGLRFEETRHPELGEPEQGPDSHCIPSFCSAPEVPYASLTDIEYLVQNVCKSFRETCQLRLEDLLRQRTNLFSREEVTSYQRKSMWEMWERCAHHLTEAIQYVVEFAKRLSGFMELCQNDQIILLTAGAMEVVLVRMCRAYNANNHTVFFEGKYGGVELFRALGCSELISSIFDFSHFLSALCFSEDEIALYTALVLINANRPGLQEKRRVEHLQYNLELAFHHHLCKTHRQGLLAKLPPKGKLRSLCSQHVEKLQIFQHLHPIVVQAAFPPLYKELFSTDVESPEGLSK"}, "source": "PubChem BioAssay AID2551", "about": "(National Center for Advancing Translational Sciences (NCATS), 2010)", "note": "About 17,000 (5.5%) of roughly 310,000 compounds were called active. The shares of active, inactive and inconclusive entries below differ from those in the screen. The call rests on the fitted dose curve; in most records, active means well fitted inhibition curve with a large enough effect; inconclusive means small, poorly fitted or top-dose-only effect, or effect the other way; inactive means no such curve, though single readings can be large or run the other way. Where the call is inconclusive, the potency comes from a doubtful curve fit. On the % scale 0 is the no-effect control and ±100 the full control effect; potency means the concentration at half of the fitted maximal effect."}
{"target": "Nuclear receptor ROR-gamma (Mus musculus) (UniProt P51450)", "assay": "qHTS for inhibitors of ROR gamma transcriptional activity; further: nearly all actives have a fitted effect of over 60% in size", "conditions": "Drosophila S2 Gal4-RORgamma UAS-luciferase reporter, 20 h; activity change, negative = inhibition: at 53.6 µM (top of the series)", "procedure,_shortened": "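Stably transfected Drosophila Schneider cells are the test system, with ROR gamma fused to Gal4 and luciferase under UAS control; luminescence is read after 20 hr of 700 uM copper sulfate induction at ambient temperature.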"}
{"smiles": "CC(=NC1CCCC1)c1c(C)[nH]n(-c2nc3ccccc3s2)c1=O", "Potency": "active: 3.55 µM"}
{"smiles": "COc1cc(CNc2ccc(O)cc2)cc(Br)c1OCc1ccccc1", "Potency": "inconclusive: 35.5 µM [inhibitor, single point]"}
{"smiles": "N#CCN1C(=S)N=C(Nc2cccc(Cl)c2)C12CCCCC2", "Potency": "active: 2.82 µM"}
{"smiles": "COc1cccc(-c2nc(NCc3ccccc3)c3ccccc3n2)c1", "Potency": "inactive"}
{"smiles": "CCOC(=O)C1(CCOc2ccccc2)CCN(Cc2cnc(C)s2)CC1", "Potency": "inactive"}
{"smiles": "CCc1ccc2c(CC(=O)Nc3nnc(C4CC4)s3)coc2c1", "Potency": "inconclusive: 12.6 µM [inhibitor, single point]"}
{"smiles": "COc1nccnc1NS(=O)(=O)c1ccc(NC(=S)NC(=O)/C=C/c2ccc(F)cc2)cc1", "Potency": "inconclusive: 15.8 µM [activator, single point]"}
{"smiles": "Cc1cccc(C(=O)N/N=C/c2ccc(OC3CSC3)cc2)c1", "Potency": "inconclusive: 11.2 µM [inhibitor, single point]"}
{"smiles": "CN(c1ccc(C(=O)N2CCN(Cc3ccccc3)CC2)cc1)S(=O)(=O)c1ccc(Cl)cc1", "Potency": "inconclusive: 35.5 µM [activator, single point]"}
{"smiles": "O=C1CCC2(CC1)NC(=O)N(c1ccccc1)N2", "Potency": "inactive"}
{"smiles": "COc1ccc(Nc2nc(Cl)nc(Nc3ccc(OC)cc3OC)n2)c(OC)c1", "Potency": "inactive"}
{"smiles": "COC(=O)c1c(NC(=O)C2CCC2)sc(C(=O)N(C)C)c1C", "Potency": "inconclusive: 31.6 µM [activator, single point]"}
{"smiles": "COc1ccc(C(O)(CCC(C)C)C(CN2CCOCC2)c2ccccc2)cc1", "note": "(centres undefined)", "Potency": "inconclusive: 17.8 µM [activator, single point]"}
{"smiles": "C=C(C)CN(CC)C(=O)c1ccc(OC2CCN(S(=O)(=O)N(C)C)CC2)cc1", "Potency": "inconclusive: 11.2 µM [activator, partial curve]"}
{"smiles": "CC1(C)CC2CC(C)(CN2C(=S)Nc2ccccc2)C1", "note": "(centres undefined)", "Potency": "inconclusive: 11.2 µM [inhibitor, partial curve]"}
{"smiles": "Cc1cccc(OCCCN2CCOCC2)c1", "Potency": "inconclusive: 0.282 µM [inhibitor, partial curve, poor fit]"}
{"smiles": "Cc1cccc(OCCn2cc(/C=N/NC(=O)c3ccncc3)c3ccccc32)c1", "Potency": "active: 4.47 µM"}
{"smiles": "O=C(NC(=S)Nc1ccccc1N1CCOCC1)c1ccc([N+](=O)[O-])cc1", "Potency": "active: 8.91 µM"}
{"smiles": "Cc1cc(N2CCN(C)CC2)nc2ccc(NC(=S)NCCC(C)C)cc12", "Potency": "inconclusive: 11.2 µM [inhibitor, partial curve, poor fit]"}
{"smiles": "CC(=O)c1cc(C)ccc1OC(=O)c1cccnc1", "Potency": "inconclusive: 3.98 µM [inhibitor, single point]"}
{"smiles": "COc1ccc(CNC(=O)CN(Cc2ccc(F)cc2)C(=O)c2csnn2)cc1", "Potency": "inconclusive: 31.6 µM [activator, single point]"}
{"smiles": "Cc1ccc2oc(-c3ccccc3)nc2c1", "Potency": "inconclusive: 0.708 µM [activator, full curve, poor fit]"}
{"smiles": "CCOc1ccc2nc(NC(=O)CCn3cccc3)sc2c1", "Potency": "active: 5.01 µM"}
{"smiles": "O=C(c1cccc(COCC(F)(F)C(F)F)c1)N1CCN(c2ccccc2)CC1", "Potency": "inconclusive: 35.5 µM [activator, single point]"}
{"smiles": "NC(=O)CCn1c2ccccc2c2ccccc21", "Potency": "inactive"}
{"smiles": "Cc1ccc(Sc2ccc(C(=O)N(C)C)cc2[N+](=O)[O-])cc1", "Potency": "inconclusive: 35.5 µM [activator, single point]"}
{"smiles": "Cc1c(N2C(=O)/C(=C3/C(=O)N(C)c4ccccc43)SC2=S)c(=O)n(-c2ccccc2)n1C", "Potency": "active: 7.94 µM"}
{"smiles": "CCCCNC(=S)N(C)/N=C/c1ccc(OCc2ccc(C(=O)OC)cc2)c(OC)c1", "Potency": "inactive"}
{"smiles": "O=[N+]([O-])c1ccc(Nc2ccc3ccccc3c2)nc1", "Potency": "inconclusive: 11.2 µM [activator, partial curve, poor fit]"}
{"smiles": "O=C1CC(c2ccc(OCCCCCOc3ccc(C4CC(=O)NC4=O)cc3)cc2)C(=O)N1", "note": "(centres undefined)", "Potency": "inconclusive: 11.2 µM [activator, partial curve]"}
{"smiles": "CCCC(=O)OC/C(O)=C(\\C#N)c1nc2ccccc2[nH]1", "Potency": "active: 3.98 µM"}
{"smiles": "Nc1[nH]nc2nc3ccccc3nc12", "Potency": "inconclusive: 1.26 µM [activator, full curve, poor fit]"}
{"smiles": "CCCCNC(=S)NNC(=O)c1cc(-c2cccnc2)nc2ccccc12", "Potency": "inconclusive: 7.94 µM [inhibitor, partial curve]"}
{"smiles": "CCOc1nc(SC(C(C)=O)C(=O)Nc2ccccc2)nc(N(C)C)n1", "note": "(centres undefined)", "Potency": "inconclusive: 11.2 µM [activator, partial curve]"}
{"smiles": "FC(F)(F)c1cccc(/C=N/NC(=S)NC2CCCCC2)c1", "Potency": "active: 0.562 µM"}
{"smiles": "Fc1ccc2nc(C3CCCCN3Cc3nc(CC4CC4)no3)[nH]c2c1", "note": "(centres undefined)", "Potency": "inconclusive: 35.5 µM [activator, single point]"}
{"smiles": "CN1/C(=C\\C=O)C(C)(C)c2ccccc21", "Potency": "inconclusive: 31.6 µM [activator, single point]"}
{"smiles": "O=C(OCn1nnc2ccccc2c1=O)c1cc(-c2ccccc2Cl)nc2ccccc12", "Potency": "inconclusive: 2.82 µM [inhibitor, single point]"}
{"smiles": "CC(C)N(Cc1nc(-c2ccccc2)no1)C(=O)CN1C(=O)c2ccccc2C1=O", "Potency": "inconclusive: 6.31 µM [inhibitor, single point]"}
{"smiles": "Cc1c2c(nc3ccccc13)CCC(C)C2", "note": "(centres undefined)", "Potency": "active: 11.2 µM"}
{"smiles": "CCC(=O)NC(C)c1nc2ccccc2n1C", "note": "(centres undefined)", "activity change, negative = inhibition": "inactive: 1.13% [at 0.365 µM]"}
{"smiles": "Cc1ccc(Sc2ncccc2C(=O)NCc2cc([N+](=O)[O-])ccc2O)c(C)c1", "Potency": "active: 5.01 µM"}
{"smiles": "CC(C)CCOc1cccc(OCC(=O)Nc2ccncc2)c1", "Potency": "inconclusive: 31.6 µM [inhibitor, single point]"}
{"smiles": "COc1ccc(N(CC(=O)N/N=C/c2ccccc2F)S(=O)(=O)c2ccccc2)cc1", "Potency": "inactive"}
{"smiles": "COCCCNC(=S)NNC(=O)c1cc(-c2cccnc2)nc2ccccc12", "Potency": "inactive"}
{"smiles": "CCOC(=O)Cc1csc(NC(=S)NC(=O)c2ccccc2Br)n1", "Potency": "active: 5.62 µM"}
{"smiles": "COC(=O)c1cc(NC(=O)Cc2coc3cc(OC)ccc23)cc(C(=O)OC)c1", "Potency": "inactive"}
{"smiles": "CN(C)c1ccc(CN(C(=O)/C=C/c2ccccc2Cl)C2CCS(=O)(=O)C2)cc1", "note": "(centres undefined)", "Potency": "inconclusive: 7.08 µM [activator, full curve, poor fit]"}
{"smiles": "O=C(CSc1nc(Cc2ccccc2)nc2ccccc12)c1ccc2c(c1)OCCO2", "Potency": "active: 6.31 µM"}
{"smiles": "O=C(NC(=S)Nc1ccc2[nH]c(=O)[nH]c2c1)c1ccccc1Cl", "Potency": "inactive"}
{"smiles": "Cc1cc(S(=O)(=O)NCc2ccccc2)ccc1OCC(=O)N1CCOCC1", "Potency": "inconclusive: 7.94 µM [activator, partial curve, poor fit]"}
{"smiles": "O=c1oc2ccccc2c2c1SC(C(F)(F)F)C2", "note": "(centres undefined)", "Potency": "inactive"}
{"smiles": "CCC(=O)Nc1cccc(NC(=S)NC(=O)c2ccc(Cl)cc2Cl)c1", "Potency": "inconclusive: 35.5 µM [inhibitor, single point]"}
{"smiles": "CC(C)N=c1scc(-c2cccs2)n1/N=C/c1ccc(O)c(O)c1O", "Potency": "inconclusive: 20 µM [inhibitor, single point]"}
{"smiles": "Cn1ncc(Br)c1NC(=O)CSc1ccc(Cl)cc1", "Potency": "inactive"}
{"smiles": "Nc1cccn2c(-c3ccc(Cl)c(Cl)c3)cnc12", "Potency": "inactive"}
{"smiles": "COC(=O)c1ccc(/C=N/Nc2nc3ccccc3[nH]2)cc1", "Potency": "inconclusive: 15.8 µM [inhibitor, single point]"}
{"smiles": "O=C(CSc1nc2ccccc2n1CCc1ccccc1)NC1CCS(=O)(=O)C1", "note": "(centres undefined)", "Potency": "inconclusive: 22.4 µM [inhibitor, single point]"}
{"smiles": "COc1ccccc1-c1cn[nH]c1-c1ccc(OCc2ccccc2F)cc1O", "Potency": "active: 8.91 µM"}
{"smiles": "CCOC(=O)c1cc(-c2ccccc2)sc1NC(=O)CSc1nncs1", "Potency": "inconclusive: 10 µM [inhibitor, single point]"}
{"smiles": "COc1ccc(O)c(C(=O)c2cnc3nc4ccccc4n3c2)c1", "Potency": "inconclusive: 12.6 µM [activator, single point]"}
{"smiles": "Cc1[nH]nc(-c2ccc(O)cc2O)c1-c1ccc(Cl)cc1", "Potency": "active: 12.6 µM"}
{"smiles": "COc1ccc(C)cc1NC(=O)C1CCN(C(=O)c2ccco2)CC1", "Potency": "inactive"}
{"smiles": "CCCSC1=C(C#N)C(c2cccs2)CC(=O)N1", "note": "(centres undefined)", "Potency": "inactive"}
{"smiles": "N#CC1=C2SC=C(c3ccc(Br)cc3)N2CCCC1=O", "Potency": "inconclusive: 2.51 µM [activator, full curve, poor fit]"}
{"smiles": "Cc1ccccc1C(N)c1ccncc1", "note": "(centres undefined)", "Potency": "inactive"}
{"smiles": "CS(=O)(=O)c1ccccc1-c1nc(-c2ccc(C(F)(F)F)cc2)no1", "Potency": "inconclusive: 22.4 µM [activator, partial curve]"}
{"smiles": "Cc1c(CC(=O)NCCCC(=O)O)c(=O)oc2cc3c(cc12)CCC(C)(C)O3", "Potency": "active: 5.01 µM"}
{"smiles": "COc1cccc2[nH]c(C(=O)NCCc3ccccc3)cc12", "Potency": "inconclusive: 8.91 µM [activator, partial curve]"}
{"smiles": "Cc1ccc2nsnc2c1S(=O)(=O)NCc1cccnc1", "Potency": "inconclusive: 15.8 µM [inhibitor, single point]"}
{"smiles": "COc1cccc(OCC(O)CN2CCN(CCO)CC2)c1", "note": "(centres undefined)", "Potency": "inconclusive: 35.5 µM [inhibitor, single point]"}
{"smiles": "COC(=O)c1ccc(Cn2nnc3ccccc32)cc1", "Potency": "inconclusive: 22.4 µM [activator, single point]"}
{"smiles": "Cc1cccc(OCCC(=O)Nc2ccc(C)c(S(=O)(=O)N3CCCCC3)c2)c1", "Potency": "inconclusive: 11.2 µM [activator, partial curve]"}
{"smiles": "C=CCn1c(Cc2cccs2)nnc1SC/C=C/c1ccccc1", "Potency": "inconclusive: 14.1 µM [inhibitor, single point]"}
